By UniProt entry, the sequences of proteins in these tests, tags left out.
UniProt P18054, whole entry, looked up: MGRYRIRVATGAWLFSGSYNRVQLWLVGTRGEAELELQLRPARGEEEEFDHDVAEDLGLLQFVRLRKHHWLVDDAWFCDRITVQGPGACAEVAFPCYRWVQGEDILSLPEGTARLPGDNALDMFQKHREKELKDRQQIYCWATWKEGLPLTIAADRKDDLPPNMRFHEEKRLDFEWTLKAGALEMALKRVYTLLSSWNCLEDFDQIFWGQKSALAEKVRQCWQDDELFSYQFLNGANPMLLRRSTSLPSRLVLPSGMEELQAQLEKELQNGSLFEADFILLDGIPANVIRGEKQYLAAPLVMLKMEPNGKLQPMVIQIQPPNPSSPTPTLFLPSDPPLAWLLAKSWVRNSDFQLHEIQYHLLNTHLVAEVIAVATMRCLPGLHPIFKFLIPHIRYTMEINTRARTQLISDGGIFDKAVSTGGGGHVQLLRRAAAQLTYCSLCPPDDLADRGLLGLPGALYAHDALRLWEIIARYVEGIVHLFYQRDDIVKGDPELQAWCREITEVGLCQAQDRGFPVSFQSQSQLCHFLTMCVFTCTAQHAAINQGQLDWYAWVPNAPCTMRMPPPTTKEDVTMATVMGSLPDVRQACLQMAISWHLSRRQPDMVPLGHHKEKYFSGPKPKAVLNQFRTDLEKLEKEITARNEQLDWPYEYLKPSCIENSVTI

Hit rate of the full screen: of about 580,000 compounds, about 6,100 (1.1%) were called active. The shares of active, inactive and inconclusive entries below differ from those in the screen. Calls come from the whole dose curve; as a rule, active = well fitted inhibition curve with a large enough effect; inconclusive = small, poorly fitted or top-dose-only effect, or another doubt; inactive = no such curve, though single readings can be large or run the other way. Potencies of inconclusive entries are doubtful fits and often do not repeat.
These compounds were tested against Polyunsaturated fatty acid lipoxygenase ALOX12 (Homo sapiens) (UniProt P18054) (assay: Primary qHTS assay for inhibitors of human arachidonate 12S-lipoxygenase (ALOX12): Round 2). Conditions: purified 12hLO, xylenol orange hydroperoxide absorbance; activity change, negative = inhibition: at 108 µM (top of the series) unless noted.
Outline: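 Purified human 12hLO at 150 nM in 25 mM Hepes, 0.01% Triton X-100, pH 7.0, preincubated 15 min at room temperature with compound. Reaction started with 40 uM arachidonic acid, 30 min at room temperature. Hydroperoxide measured by Fe-xylenol orange, 573/405 nm absorbance ratio.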
With `O=S(=O)(c1ccc(F)cc1)N1CCn2cccc2C1c1ccccc1F` (stereo unspecified) the Potency was inconclusive: 39.8 µM [inhibitor, partial curve, poor fit].
For `COc1ccc(N2CC3(C2)CN(c2ccccc2)C(=O)O3)cc1OC`, the “activity change, negative = inhibition” value was inactive: -7.35% [at 176 µM].
`O/N=C/c1cc(Cl)ccc1OCc1ccccc1Cl` was tested, and the Potency was inconclusive: 56.2 µM [inhibitor, partial curve, poor fit].
With `Cc1cccc(C)c1C(=NCCN(C)C)c1ccccc1` the Potency was inconclusive: 6.31 µM [inhibitor, full curve].
With `S=c1[nH]nc(CCc2ccc(Cl)cc2)o1` the Potency was inconclusive: 44.7 µM [inhibitor, partial curve, poor fit].
For `C=CCSC1=C(C#N)C(c2ccccc2C)CC(=O)N1` (stereo unspecified), the Potency was inconclusive: 12.6 µM [inhibitor, full curve].
`O=C1CCC(C(=O)OCc2ccc(Cl)cc2Cl)=NN1` was tested, and the Potency was inconclusive: 56.2 µM [inhibitor, partial curve, poor fit].
For `O=C(NN1C(=O)/C(=C/C=C/c2ccco2)SC1=S)c1ccncc1`, the Potency was active: 50.1 µM.
For `Cc1c(Cl)cccc1NC(=O)CCN1CCN(CCO)CC1`, the Potency was inconclusive: 89.1 µM [inhibitor, single point].
In the case of `COc1ccc(O)c(CN2CCC(CO)(Cc3ccccc3Cl)CC2)c1`, the Potency is reported as inconclusive: 12.6 µM [inhibitor, full curve].
`CNC(=S)SCCOc1ccccc1C` was tested, and the Potency was inconclusive: 63.1 µM [inhibitor, partial curve, poor fit].
With `O=C(CN1C(=O)C2CC=C(Cl)CC2C1=O)NCc1ccccc1` (stereo unspecified) the Potency was inconclusive: 8.91 µM [inhibitor, full curve].
`CCCCc1c(-c2ccccc2OC)ncn1CCc1ccccc1` was tested, and the Potency was inconclusive: 70.8 µM [inhibitor, partial curve, poor fit].
With `COC(=O)/C=C/c1ccc2c(c1)OCO2` the Potency was inconclusive: 10 µM [inhibitor, full curve, poor fit].
With `O=C(/C=C/c1cccc(Cl)c1)OCC(=O)c1ccc[nH]1` the “activity change, negative = inhibition” value was inactive: -16.2%.
In the case of `O=C(O)c1cccc([N+](=O)[O-])c1C(=O)Nc1ccc2ccccc2c1`, the Potency is reported as inconclusive: 100 µM [inhibitor, partial curve, poor fit].
For `CCc1ccc(-c2cc3c(=O)n(CC(=O)NCCN4CCCCC4C)nc(C)n3n2)cc1` (stereo unspecified), the Potency was inconclusive: 17.8 µM [inhibitor, partial curve, poor fit].
In the case of `CC(C)(C)c1ccc(C(=O)O/N=C(\N)c2ccccn2)cc1`, the “activity change, negative = inhibition” value is reported as inactive: -19.7%.
`COC(=O)[C@]1(C)N[C@H](CN(C)C(=O)c2ccc(C)cc2)[C@@H]2C(=O)N(Cc3ccccc3)C(=O)[C@@H]21` was tested, and the Potency was inconclusive: 4.47 µM [inhibitor, full curve, poor fit].
For `COc1ccc(Cc2c(-c3cccc(Cl)c3)nc3ccc(Br)cn23)c(C)c1`, the Potency was inconclusive: 63.1 µM [inhibitor, partial curve, poor fit].
In the case of `CC12CCC(=O)C=C1CCC1C2CCC2(C)C(c3csc(N)n3)CCC12` (stereo unspecified), the Potency is reported as inconclusive: 44.7 µM [inhibitor, partial curve, poor fit].
With `O=C(NC(Cc1ccccc1)C(=O)Nc1ccc(N2CCOCC2)cc1)c1ccco1` (stereo unspecified) the Potency was inconclusive: 112 µM [inhibitor, single point].
With `Cn1c(=O)c(C2=NN(C(=O)c3ccco3)C(c3ccco3)C2)c(-c2ccccc2)c2cc(Cl)ccc21` (stereo unspecified) the Potency was inconclusive: 50.1 µM [inhibitor, partial curve, poor fit].
`CC(CN1CCCC1)C(=O)NN` (stereo unspecified) was tested, and the “activity change, negative = inhibition” value was inactive: 35.1%.
With `c1ccc2c(c1)NCCS2` the Potency was inconclusive: 50.1 µM [inhibitor, partial curve, poor fit].
For `Cc1cccc(NS(=O)(=O)c2cc(C)c(Br)cc2C)n1`, the Potency was inconclusive: 35.5 µM [inhibitor, partial curve, poor fit].
With `Cc1cccc(NC(=S)NNC(=S)NC2CCCCC2)c1C` the “activity change, negative = inhibition” value was inactive: -11.8%.
With `CC(C)(C)NCc1cc2ccccc2[nH]c1=O` the “activity change, negative = inhibition” value was inactive: 3.53%.
`CCOC(=O)Cn1nc(NC(=O)c2ccc(C(=O)OC)cc2)cc1C` was tested, and the Potency was inconclusive: 44.7 µM [inhibitor, single point].
For `O=C1C=C(c2ccc(C(=O)O)cc2)C[C@@H](c2ccc(Cl)cc2)C1`, the Potency was inconclusive: 39.8 µM [inhibitor, partial curve, poor fit].
For `C=C(C)CNC(=S)Nc1ccc(S(=O)(=O)Nc2cnc3ccccc3n2)cc1`, the Potency was inconclusive: 44.7 µM [inhibitor, partial curve, poor fit].
For `Cc1ccccc1CN1CCc2c(OCC(=O)N3CCCc4ccccc43)cccc2C1=O`, the Potency was inconclusive: 100 µM [inhibitor, partial curve, poor fit].
`Cc1ccc(C)c(N2CCN(C(=O)CCn3c(=O)c4cccn4c4cccnc43)CC2)c1` was tested, and the Potency was inconclusive: 100 µM [inhibitor, partial curve, poor fit].
With `COc1ccc2c(C)c(CC(=O)NCc3ccco3)c(=O)oc2c1` the Potency was inconclusive: 79.4 µM [inhibitor, partial curve, poor fit].
`CC(NC(=O)Cn1nc(-c2ccc(F)cc2)oc1=O)c1ccc(Br)cc1` (stereo unspecified) was tested, and the Potency was inconclusive: 89.1 µM [inhibitor, partial curve, poor fit].
In the case of `Cc1ccc2cc(CN(CCN(C)C)C(=O)Nc3ccc(Cl)cc3)c(=O)[nH]c2c1`, the Potency is reported as inconclusive: 44.7 µM [inhibitor, partial curve, poor fit].
For `COc1ccc(C)cc1-n1[nH]nnc1=S`, the Potency was inconclusive: 39.8 µM [inhibitor, partial curve, poor fit].
With `COc1ccccc1N(C)S(=O)(=O)c1ccc(C(=O)NC(C)(C)C)cc1` the “activity change, negative = inhibition” value was inactive: 0%.
With `CCC1CCCCN1S(=O)(=O)c1ccc(C(=O)Nc2nc(-c3ccncc3)cs2)cc1` (stereo unspecified) the Potency was inconclusive: 44.7 µM [inhibitor, partial curve, poor fit].
With `Cc1cc(C)nc(NC(=O)Nc2cccc(Cl)c2C)c1` the “activity change, negative = inhibition” value was inactive: 26.8%.
In the case of `COC(=O)C1=C(C)N(c2ccc(Br)cc2)C(=O)/C1=C\c1ccco1`, the Potency is reported as inconclusive: 44.7 µM [inhibitor, partial curve, poor fit].
For `Cc1ccc(NC(NC(=O)c2cccc(C)c2)C(Cl)(Cl)Cl)cc1` (stereo unspecified), the “activity change, negative = inhibition” value was inactive: 9.95%.
`Cc1ccc(C2CC(c3ccccc3)=NN2C(=S)Nc2ccccc2)o1` (stereo unspecified) was tested, and the “activity change, negative = inhibition” value was inactive: 351%.
In the case of `CCN(CC)C(=O)c1sc(NC(=O)c2cc(-c3ccc(C)s3)nc3ccccc23)c(C(=O)OC)c1C`, the “activity change, negative = inhibition” value is reported as inactive: 159%.
For `CCOC(=O)CSc1nc2c(sc(=S)n2-c2ccccc2OC)c(=O)n1-c1ccccc1OC`, the “activity change, negative = inhibition” value was inactive: 34.9%.
For `CC(=O)N[C@@H](Cc1ccc(OC(F)(F)F)cc1)C(=O)O`, the Potency was inconclusive: 28.2 µM [inhibitor, full curve, poor fit].
For `CC(=O)c1cc2c(cc1NC(=O)CCn1cnnn1)OCO2`, the “activity change, negative = inhibition” value was inactive: -3.89%.
For `COc1cccc(/C=N/NC(=O)CN2CC(c3ccccc3)CC2=O)c1O` (stereo unspecified), the Potency was inconclusive: 35.5 µM [inhibitor, partial curve, poor fit].
With `O=C(NCCN1C(=O)S/C(=C/c2cccnc2)C1=O)c1ccc(S(=O)(=O)N2CCCC2)cc1` the Potency was inconclusive: 89.1 µM [inhibitor, single point].
With `COc1cccc(CN(C(=O)c2cc3ccccc3oc2=O)C2CCS(=O)(=O)C2)c1` (stereo unspecified) the Potency was inconclusive: 100 µM [inhibitor, single point].
In the case of `O=C(/C=C/c1ccccc1[N+](=O)[O-])N1CCc2ccccc2C1`, the Potency is reported as inconclusive: 44.7 µM [inhibitor, partial curve, poor fit].
With `O=C(NNS(=O)(=O)c1ccc(F)cc1)c1sccc1-n1cccc1` the “activity change, negative = inhibition” value was inactive: -14.9%.
For `COc1ccc(C(=O)N2CCOCC3(CN(Cc4ccccc4)C3)C2)c(OC)n1`, the “activity change, negative = inhibition” value was inactive: 1.92% [at 176 µM].
In the case of `CCOC(=O)CN(C(=O)c1snc(C(N)=O)c1N)C(C(=O)NCCC(C)C)c1ccc(F)cc1` (stereo unspecified), the Potency is reported as inconclusive: 56.2 µM [inhibitor, partial curve, poor fit].
`Cc1cc(C)c(OCCn2ccnc2)c(C)c1` was tested, and the Potency was inconclusive: 89.1 µM [inhibitor, single point].
`Cc1cc(C)c2c(CC(=O)Nc3ccc(S(=O)(=O)Nc4ncccn4)cc3)coc2c1` was tested, and the “activity change, negative = inhibition” value was inactive: -25.5%.
With `CS(=O)(=O)c1ccc(OCC2(CNS(=O)(=O)c3ccc(Cl)cc3)C[C@@H](O)[C@@H](O)C2)cc1` (stereo partly specified) the Potency was active: 79.4 µM.
`CC1=C[C@@H](CN(C)CCO)[C@H](C(C)C)C[C@H]1Cc1nnc(C)o1` was tested, and the “activity change, negative = inhibition” value was inactive: 36.6% [at 176 µM].
With `CC(NC(=O)c1ccc2c(c1)NC(=O)CCS2)c1ccncc1` (stereo unspecified) the Potency was active: 8.91 µM.
For `Cc1[nH]c2ccccc2c1C(=O)N1CCN(S(=O)(=O)c2ccccc2F)CC1`, the Potency was inconclusive: 141 µM [inhibitor, partial curve, poor fit].
With `CC(=O)NCCNc1ncnc2ccc(-c3ccoc3)cc12` the Potency was inconclusive: 11.2 µM [inhibitor, full curve, poor fit].
For `CC(C)(C)C1CCCCC1NC(=O)c1ccc(Cl)nc1` (stereo unspecified), the “activity change, negative = inhibition” value was inactive: 9.04%.
With `Cc1cc(-c2nnc(SCC(=O)Nc3ccccc3C(F)(F)F)o2)c(C)n1-c1ccccc1` the Potency was inconclusive: 141 µM [inhibitor, partial curve, poor fit].
With `Cc1cc(C)c(OCCOCCN2CCCC2)c(C)c1` the Potency was inconclusive: 0.355 µM [inhibitor, full curve, poor fit].
With `COc1ccc(Br)cc1/C=N/N1C(=O)CSC1=S` the Potency was inconclusive: 50.1 µM [inhibitor, partial curve, poor fit].
For `COC(=O)c1cc(NC(=O)c2sc3ncn(Cc4cccc(F)c4)c(=O)c3c2C)cc(C(=O)OC)c1`, the “activity change, negative = inhibition” value was inactive: -12.7%.

— PubChem BioAssay AID1671190 (National Center for Advancing Translational Sciences (NCATS), 2021)
% is set by controls: 0 for no effect and ±100 for the full control effect; potency is the fitted concentration of half-maximal effect.
